Experimental data: PubChem BioAssay AID1159595 (NIAID, 2016)
Here is a random part of 756 reagents. 115 of them (15%) count as active. 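Active calls cover both lowered and raised reporter signal; each score refers to one siRNA rather than a whole gene.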 The numbers tell different reagents against one gene apart. Not stated in the record: the amount of reagent.

Aim: 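Which toll-like receptor pathway genes macrophages need for Pam3CSK4-induced Tnf promoter activity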 (primary screen)
Cell system: mouse RAW264.7 macrophage reporter cells
Reagent: single siRNA against mouse genes
Timing: assayed 48 to 72 hours after siRNA transfection; ligand applied for 16 hours
Treatment: Pam3CSK4 (TLR2 ligand) for 16 hours before fixation; dose not given
Measurement: 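Nuclear mCherry from a Tnf promoter reporter imaged after 16 h Pam3CSK4, 48–72 h post-transfection; background subtracted, plate median/MAD normalised, robust z-scores averaged over replicates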
Scale: Tnf reporter z-score (replicate mean): higher = stronger Tnf promoter reporter signal than negative control wells
Rule for the call: 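An siRNA is active when its replicate-mean z-score is -1.5 or lower or 1.5 or higher (activity score at least 50); activity graded at absolute z 1, 1.5, 2 and 2.5; calls apply to single siRNAs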
Meaning of the calls: active = strong change (up or down); inactive = little change

no.	gene symbol	reagent no.	Tnf reporter z-score (replicate mean)	outcome
1	Tbkbp1	1	-0.321	inactive
2	Tbkbp1	2	-0.846	inactive
3	Tbkbp1	3	0.968	inactive
4	Tbkbp1	4	0.375	inactive
5	Tbkbp1	5	0.889	inactive
6	Tbkbp1	6	-0.0936	inactive
7	Map2k6	1	-0.777	inactive
8	Map2k6	2	0.415	inactive
9	Map2k6	3	-0.819	inactive
10	Map2k6	4	0.359	inactive
11	Map2k6	5	-0.651	inactive
12	Map2k6	6	1.05	inactive
13	Ifnb1	1	1.02	inactive
14	Ifnb1	2	-0.803	inactive
15	Ifnb1	3	-1.21	inactive
16	Ifnb1	4	1.27	inactive
17	Ifnb1	5	-0.951	inactive
18	Ifnb1	6	-1.1	inactive
19	Tlr3	1	-0.209	inactive
20	Tlr3	2	-1.67	active
21	Tlr3	3	-0.222	inactive
22	Tlr3	4	-0.162	inactive
23	Tlr3	5	0.749	inactive
24	Tlr3	6	0.805	inactive
25	Elk4	1	-1.27	inactive
26	Elk4	2	0.529	inactive
27	Elk4	3	-0.652	inactive
28	Elk4	4	0.085	inactive
29	Elk4	5	-0.216	inactive
30	Elk4	6	-0.491	inactive
31	Pik3cd	1	-0.326	inactive
32	Pik3cd	2	-0.733	inactive
33	Pik3cd	3	-0.336	inactive
34	Pik3cd	4	-0.413	inactive
35	Pik3cd	5	-0.241	inactive
36	Pik3cd	6	-1.04	inactive
37	Ets1	1	-0.567	inactive
38	Ets1	2	1.56	active
39	Ets1	3	-0.577	inactive
40	Ets1	4	1.04	inactive
41	Ets1	5	-0.486	inactive
42	Ets1	6	-1.4	inactive
43	Lbp	1	0.211	inactive
44	Lbp	2	1.46	inactive
45	Lbp	3	0.268	inactive
46	Lbp	4	-2.6	active
47	Lbp	5	0.631	inactive
48	Lbp	6	0.218	inactive
